Read-outs that look alike come from different tables or passages of the source.
Test system: E. coli MG1655 reporter cells
Type: cell-based, Escherichia coli
Experimental: The classical luciferase was from Molecular Probes (ATP Determination Kit (A22066)). The thermostable luciferase was from “CheckLite AT100” (kikkoman). The Luciferin-luciferase reagents were prepared following manufacturer instructions. Bacteria from exponentially growing cultures (OD600=0.3) were added to each well (60 μl/well) of a black 96-microtiter plate (Greiner Bio-one, 655076) and 20 μl of the luciferin-luciferase reagent solution was added. The microtiter plate was incubated 5 min at 37° C. for reaction with the luciferase to eliminate traces of extracellular ATP. Then 40 μl of antibiotic solution (3 times concentrated) prepared in the culture medium were added. Bioluminescence of each well was monitored for 4 hours under shaking (218 rpm) and at 28 or 37° C., depending on the experiments (see legends of Figures). The reagent stability in presence or absence of antibiotics was checked in control experiments without bacteria but with 4 pmoles of ATP. Tests were also performed in 384-microtiter plates (Greiner Bio-one, 784076).
Aminoglycosides are bactericidal antibiotics causing translational miscoding with lethal consequences for the cell. Leakage of small molecules following an aminoglycoside shock was previously identified by different methods including radiolabelling. Therefore, the inventors investigated the response of live cells to aminoglycoside stress.

[1] = (lag at MIC minus plateau lag) relative to total lag amplitude, MG1655 E. coli, OD600 of 0.15, medium LB, 37° C.

Compound: NCC[C@H](O)C(=O)N[C@@H]1C[C@H](N)[C@@H](O[C@H]2O[C@H](CN)[C@@H](O)[C@H](O)[C@H]2O)[C@H](O)[C@H]1O[C@H]1O[C@H](CO)[C@@H](O)[C@H](N)[C@H]1O [Amikacin]
- Value of parameter X (%) [1]: 23.4%

Compound: CC1(C)S[C@@H]2[C@H](NC(=O)[C@H](N)c3ccc(O)cc3)C(=O)N2[C@H]1C(=O)O [Amoxicillin]
- Value of parameter X (%) [1]: 8.5%

Compound: CC1(C)S[C@@H]2[C@H](NC(=O)[C@H](N)c3ccccc3)C(=O)N2[C@H]1C(=O)O [Ampicillin]
- Value of parameter X (%) [1]: 3.5%

Compound: CN[C@@H]1[C@@H](O[C@H]2O[C@H](CO)[C@@H](N)[C@H](O)[C@H]2O)OC2C[C@@H](N)[C@@H](O[C@H]3[C@H](O)[C@@H](O)[C@H](N)C[C@@H]3N)OC2[C@@H]1O (some centres unmarked) [Apramycin]
- Value of parameter X (%) [1]: 0%

Compound: CO[C@@]1(NC(=O)Cc2cccs2)C(=O)N2C(C(=O)O)=C(COC(N)=O)CS[C@@H]21 [Cefoxitin]
- Value of parameter X (%) [1]: 0.1%

Compound: CO/N=C(\C(=O)N[C@@H]1C(=O)N2C(C(=O)O)=C(CSc3nc(=O)c(=O)[nH]n3C)CS[C@H]12)c1csc(N)n1 [Ceftriaxone]
- Value of parameter X (%) [1]: 2.1%

Compound: CC1=C(C(=O)O)N2C(=O)[C@@H](NC(=O)[C@H](N)c3ccccc3)[C@H]2SC1 [Cephalexin]
- Value of parameter X (%) [1]: 0.6%

Compound: C[C@@H]1O[C@@H]1P(=O)(O)O [Fosfomycin]
- Value of parameter X (%) [1]: 21.6%

Compound: CCn1cc(C(=O)O)c(=O)c2ccc(C)nc21 [Nalidixic acid]
- Value of parameter X (%) [1]: 5.6%

Compound: [H]/N=C(/N)N[C@H]1[C@H](O)[C@@H](O)[C@H](O[C@@H]2O[C@@H](C)[C@](O)(C=O)[C@H]2O[C@@H]2O[C@@H](CO)[C@H](O)[C@@H](O)[C@@H]2NC)[C@@H](N/C(N)=N\[H])[C@@H]1O [Streptomycin]
- Value of parameter X (%) [1]: 1.6%

Compound: Cc1c(N)nc([C@H](CC(N)=O)NC[C@H](N)C(N)=O)nc1C(=O)N[C@H](C(=O)N[C@H](C)[C@@H](O)[C@H](C)C(=O)N[C@H](C(=O)NCCC1=N[C@@H](c2nc(C(=O)NCCCCN=C(N)N)cs2)CS1)[C@@H](C)O)[C@@H](O[C@@H]1O[C@@H](CO)[C@@H](O)[C@H](O)[C@@H]1O[C@H]1O[C@H](CO)[C@@H](O)[C@H](OC(N)=O)[C@@H]1O)c1cnc[nH]1 [Zeocin]
- Value of parameter X (%) [1]: 23.7%

Compound: Bleomycin
- Value of parameter X (%) [1]: 19.8%

Compound: Gentamicin
- Value of parameter X (%) [1]: 0%

Compound: Neomycin
- Value of parameter X (%) [1]: 2.3%
- Value of parameter X (%) (media MH, OD600 at 0.015): 12.8%
- Value of parameter X (%) (media MH, OD600 at 0.15): 8.8%
- Value of parameter X (%) (media MH, OD600 at 0.3): 21.8%

Reference: patent US12595504B2, “Methods for screening compounds for bactericidal activity and for determining the sensitivity of bacterial samples” (priority 2020, dated 2026)
